According to patent US8703143:
No constants are given. Whether binding was seen depends on the method and setting. A result given as binding can be weak or reduced; the word gives no strength.

Target: rec FN 2-11 (B+) (human)
Test: immunoblot of recombinant FN proteins expressed in E. coli

- binding: binds
B1: scFv CGS-1 (scFv, V domains shown)
VH: QVQLVESGGGLVQPGGSLRLSCAVSGFTFSSYAMSWVRQAPGKGLEWVSAISGSGGSTYYADSVKGRFTISRDNSKNTLYLQMNSLRAEDTAVYYCARSLPKWGQGTLVTVSR
VL: SSELTQDPAVSVALGQTVRITCQGDSLRSYYASWYQQKPGQAPVLVTYGKNNRPSGIPDRFSGSSSGNTASLTITGAQAEDEADYYCNSSPVVLNGVVFGGGTKLTVL
